In patent US9102925B2, “Compositions and methods for treating or preventing conditions and diseases associated with Mannheimia haemolytica” (Washington State University, priority 2009, dated 2015):
At least one peptide structure holds a part that was inferred or is arguable (an end, a ring closure or a residue). Peptide text beside a SMILES is read from it.

Tests used:
[1] = target: T1, M. haemolytica leukotoxin (Lkt) (Mannheimia haemolytica, UniProt P16535); format: cell-based
[2] = target: T1, M. haemolytica leukotoxin (Lkt); format: binding

Compound | Inhibition of Lkt-induced cytolysis of bovine PMNs [1] | Inhibition of Lkt binding to bovine PMNs [2]
CSCC[C@H](N)C(=O)N[C@@H](CC(C)C)C(=O)N[C@@H](CCCNC(=N)N)C(=O)N[C@@H](CCC(N)=O)C(=O)N[C@@H](CCCNC(=N)N)C(=O)N1CCC[C@H]1C(=O)N[C@@H](CCC(N)=O)C(=O)N[C@@H](CC(C)C)C(=O)N[C@@H](CC(C)C)C(=O)N[C@@H](CC(C)C)C(=O)N[C@@H](CC(C)C)C(=O)N[C@@H](C)C(=O)NCC(=O)N[C@@H](CC(C)C)C(=O)N[C@@H](CC(C)C)C(=O)N[C@@H](C)C(=O)N[C@@H](CC(C)C)C(=O)N[C@@H](CCC(N)=O)C(=O)N[C@@H](CO)C(=O)N[C@H](C(=O)O)C(C)C [P1] (H-MLRQRPQLLLLAGLLALQSV-OH) | strongly inhibited | –
CC(C)C[C@H](NC(=O)CNC(=O)[C@H](C)NC(=O)[C@H](CC(C)C)NC(=O)[C@H](CC(C)C)NC(=O)[C@H](CC(C)C)NC(=O)[C@H](CC(C)C)NC(=O)[C@H](CCC(N)=O)NC(=O)[C@@H]1CCCN1C(=O)[C@@H](N)CCCNC(=N)N)C(=O)N[C@@H](CC(C)C)C(=O)N[C@@H](C)C(=O)N[C@@H](CC(C)C)C(=O)N[C@@H](CCC(N)=O)C(=O)N[C@@H](CO)C(=O)N[C@H](C(=O)N[C@@H](CC(C)C)C(=O)N[C@@H](CO)C(=O)N[C@@H](CCC(N)=O)C(=O)N[C@@H](CCC(=O)O)C(=O)O)C(C)C [P5] (H-RPQLLLLAGLLALQSVLSQE-OH) | strongly inhibited | inhibition of Lkt binding to bovine PMNs
